Assay results published in patent US20130089499A1 (NATIONAL RESEARCH COUNCIL OF CANADA, published 2013).
These are yes or no findings as the source states them, for the method shown. Some results given as binding are weak or reduced against the parent protein; the word gives no strength. For part of these data: Where a sequence is shown, tags or fusion partners need not be part of it.

The chains behind the UniProt entries cited, without tags or fusion partners. Residues count along the entry.
UniProt P10600, residues 301-412: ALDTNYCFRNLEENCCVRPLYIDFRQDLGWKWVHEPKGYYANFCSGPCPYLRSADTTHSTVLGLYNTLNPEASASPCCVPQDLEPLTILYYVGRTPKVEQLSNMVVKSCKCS
UniProt P01137, residues 279-390: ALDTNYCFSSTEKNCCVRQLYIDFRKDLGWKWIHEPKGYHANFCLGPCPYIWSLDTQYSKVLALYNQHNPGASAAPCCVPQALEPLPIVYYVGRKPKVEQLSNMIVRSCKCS

Tests used:
TGF-β3 [1] = target: TGF-β3 (UniProt P10600); experiment: SPR (Biacore), immobilised TGF-β3
TGF-β3 [2] = target: TGF-β3 (UniProt P10600); experiment: SPR (Biacore), conditioned medium over immobilised TGF-β3
TGF-β3 [3] = target: TGF-β3 (UniProt P10600); experiment: SPR (Biacore), conditioned medium diluted 1:20 over 270 RUs immobilised TGF-β3, data normalised to 100 RUs max response
TGF-β3 [4] = target: TGF-β3 (UniProt P10600); experiment: SPR (Biacore), diluted conditioned media from transfected 293 cells injected over immobilised TGF-β3, blank surface subtracted
TGF-β1 [5] = target: T1, TGF-β1 (UniProt P01137 279-390); experiment: SPR solution competition with TGF-β1
TGF-β1 [6] = target: T1, TGF-β1; experiment: SPR (Biacore) direct binding, immobilised TGF-β1
TGF-β2 [7] = target: T2, TGF-β2 (UniProt P61812 303-414); experiment: SPR (Biacore) direct binding, immobilised TGF-β2
T2 sequence (looked up): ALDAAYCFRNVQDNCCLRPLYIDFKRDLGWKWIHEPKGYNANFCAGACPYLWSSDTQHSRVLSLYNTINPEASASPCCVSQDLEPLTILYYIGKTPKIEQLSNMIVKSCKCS

TGF-β3 [8] = target: TGF-β3 (UniProt P10600); experiment: SPR (Biacore) direct binding, immobilised TGF-β3
TGF-β1 [9] = target: T1, TGF-β1; experiment: SPR (Biacore), 100 nM injected over immobilised TGF-β1
TGF-β3 [10] = target: TGF-β3 (UniProt P10600); experiment: SPR (Biacore), 100 nM injected over immobilised TGF-β3
TGF-β1 [11] = target: T1, TGF-β1; experiment: SPR (Biacore), 100 nM injected over 500 RUs immobilised TGF-β1
TGF-β3 [12] = target: TGF-β3 (UniProt P10600); experiment: SPR (Biacore), 100 nM injected over 500 RUs immobilised TGF-β3
TGF-β2 [13] = target: T2, TGF-β2; experiment: SPR (Biacore), 100 nM injected over immobilised TGF-β2
TGF-β1 [14] = target: T1, TGF-β1; experiment: SPR solution competition, 5 nM TGF-β1, free ligand measured on the 1D11 surface

Measured: binding

B1: Prototype (TβRII)^2 (designed binder)
chain: TIPPEQKLISEEDLLHVQKSVNNDMIVTDNNGAVKFPQLCKFCDVRFSTCDNQKSCMSNCSITSICEKPQEVCVAVWRKNDENITLETVCHDPKLPYHDFILEDAASPKCIMKEKKKPGETFFMCSCSSDECNDNIIFSEEYNTSNPDGGRHVQKSVNNDMIVTDNNGAVKFPQLCKFCDVRFSTCDNQKSCMSNCSITSICEKPQEVCVAVWRKNDENITLETVCHDPKLPYHDFILEDAASPKCIMKEKKKPGETFFMCSCSSDECNDNIIFSEEYNTSNPDHHHHHH
binds: TGF-β3 [1] | TGF-β3 [2] | TGF-β3 [3] | TGF-β3 [4]

B2: N-His (TβRII)^2 (designed binder)
chain: APMAEGGGQNHHHHHHHHGGSFNPRIPPHVQKSVNNDMIVTDNNGAVKFPQLCKFCDVRFSTCDNQKSCMSNCSITSICEKPQEVCVAVWRKNDENITLETVCHDPKLPYHDFILEDAASPKCIMKEKKKPGETFFMCSCSSDECNDNIIFSEEYNTSNPDIPPHVQKSVNNDMIVTDNNGAVKFPQLCKFCDVRFSTCDNQKSCMSNCSITSICEKPQEVCVAVWRKNDENITLETVCHDPKLPYHDFILEDAASPKCIMKEKKKPGETFFMCSCSSDECNDNIIFSEEYNTSNPD
notes: Two human TβRII ectodomains in tandem with the native 35-residue linker (IPP restored), an N-terminal 8xHis tag and a thrombin site; also called modified N-His (TβRII)^2; bivalent N-His (TβRII)^2
not listed: TGF-β3 [1] | TGF-β3 [2] | TGF-β3 [3] | TGF-β3 [4]
binds: all other assays above

B3: N-His (TβRIIb)^2 (designed binder)
chain: APMAEGGGQNHHHHHHHHGGSFNPRIPPHVQKSVNNDMIVTDNNGAVKFPQLCKFCDVRFSTCDNQKSCMSNCSITSICEKPQEVCVAVWRKNDENITLETVCHDPKLPYHDFILEDAASPKCIMKEKKKPGETFFMCSCSSDECNDNIIFSEEYNTSNPDIPPHVQKSDVEMEAQKDEIICPSCNRTAHPLRHINNDMIVTDNNGAVKFPQLCKFCDVRFSTCDNQKSCMSNCSITSICEKPQEVCVAVWRKNDENITLETVCHDPKLPYHDFILEDAASPKCIMKEKKKPGETFFMCSCSSDECNDNIIFSEEYNTSNPD
notes: TβRII ectodomain followed by a TβRIIb ectodomain, giving a 60-residue linker, with an N-terminal His tag; also called (TβRII)^2 trap having a 60 amino acid linker
binds: TGF-β1 [5]
